Test results: article PMC11822377

Amino acid sequences for entries named in this document (tags omitted). A change or cut given only in a name is not applied to a line headed by its entry.
UniProt A0A0K3AR81: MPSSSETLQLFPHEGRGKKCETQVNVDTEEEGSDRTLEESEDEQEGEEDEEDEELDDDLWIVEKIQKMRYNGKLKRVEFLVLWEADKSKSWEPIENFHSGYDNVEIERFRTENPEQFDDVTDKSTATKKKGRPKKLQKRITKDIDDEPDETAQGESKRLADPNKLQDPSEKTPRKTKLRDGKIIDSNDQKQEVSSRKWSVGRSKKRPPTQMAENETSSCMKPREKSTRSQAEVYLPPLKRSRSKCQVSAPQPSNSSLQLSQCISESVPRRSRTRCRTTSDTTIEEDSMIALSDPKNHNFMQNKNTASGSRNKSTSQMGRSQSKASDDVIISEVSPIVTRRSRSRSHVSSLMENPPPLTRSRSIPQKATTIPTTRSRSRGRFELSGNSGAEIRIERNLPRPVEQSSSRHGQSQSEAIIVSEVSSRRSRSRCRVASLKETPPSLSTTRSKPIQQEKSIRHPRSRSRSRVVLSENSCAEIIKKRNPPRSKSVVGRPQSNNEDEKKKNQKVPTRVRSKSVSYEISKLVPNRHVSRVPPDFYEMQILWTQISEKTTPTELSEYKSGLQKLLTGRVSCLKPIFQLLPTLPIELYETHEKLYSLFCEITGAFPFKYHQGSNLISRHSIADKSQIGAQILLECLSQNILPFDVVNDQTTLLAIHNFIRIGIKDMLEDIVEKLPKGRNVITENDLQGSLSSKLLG
UniProt Q23096: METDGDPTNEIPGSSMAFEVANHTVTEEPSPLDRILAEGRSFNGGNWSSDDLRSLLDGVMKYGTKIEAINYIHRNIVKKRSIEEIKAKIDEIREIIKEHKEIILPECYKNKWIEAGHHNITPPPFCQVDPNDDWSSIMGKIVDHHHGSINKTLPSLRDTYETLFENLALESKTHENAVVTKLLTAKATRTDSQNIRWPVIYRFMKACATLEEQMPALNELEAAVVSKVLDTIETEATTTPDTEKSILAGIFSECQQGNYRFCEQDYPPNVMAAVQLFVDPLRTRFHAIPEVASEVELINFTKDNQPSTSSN

B1: TAG-72 (protein, UniProt Q9XVS1 1-380)
chain: MSSSEVASHYNKVLQVGIEGRKESRIFFMRNMNNWVKSQLINDAKQRVNDNGVNNPRVLDLACGKGGDLKKWDIAGAKDVVMADVADVSIQQAEERYKQMFGYKKNNIFTVQFIVADCTKENLEDRIENKDPFDLVSCQFALHYSFVDEASARIFLKNAVGMLKPGGVFIGTLPDADRIVWSMRNGENGQFANEVCKITYENVEELAEGKVPLFGAKFHFSLDEQVNCPEFLAYFPLVKHLLEELDMELLFVHNFAEAINKWLEPGRRLLESMTGLETYPNEKLSGKSDDEYLEAKAKLDAFPEDERIKTMGTLSKSEWEAICMYLVFGFRKKKSEAEKTEEEPATTKPVAESESEQKEVTESEEKEDQEDCEHQEAQTN

Molecular target: T1, TurboID::PRDE-1 (C. elegans) (UniProt O17828)
T1 sequence: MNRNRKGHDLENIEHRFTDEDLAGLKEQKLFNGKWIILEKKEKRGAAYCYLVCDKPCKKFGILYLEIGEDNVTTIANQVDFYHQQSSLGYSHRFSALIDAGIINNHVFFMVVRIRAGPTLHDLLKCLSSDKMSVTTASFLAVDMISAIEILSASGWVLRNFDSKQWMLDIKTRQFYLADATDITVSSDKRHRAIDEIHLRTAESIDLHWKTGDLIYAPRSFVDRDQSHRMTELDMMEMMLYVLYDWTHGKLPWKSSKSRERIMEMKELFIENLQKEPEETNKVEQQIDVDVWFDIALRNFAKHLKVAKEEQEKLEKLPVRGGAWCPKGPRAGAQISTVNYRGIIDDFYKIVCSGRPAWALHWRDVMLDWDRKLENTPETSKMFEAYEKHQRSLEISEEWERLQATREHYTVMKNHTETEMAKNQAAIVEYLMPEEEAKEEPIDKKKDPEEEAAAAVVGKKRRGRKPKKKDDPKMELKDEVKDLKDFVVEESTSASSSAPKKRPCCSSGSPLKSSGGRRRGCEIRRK
Assay: proximity labelling; TurboID::PRDE-1 biotinylates nearby proteins in vivo in adult C. elegans (20°C); lysate in RIPA buffer, streptavidin magnetic beads overnight at 4°C, stringent washes (1 M KCl, 0.1 M Na2CO3, 2 M urea), on-bead trypsin digestion, mass spectrometry; compared with untagged N2

binding, binds:
chromodomain protein UAD-2 (from UniProt A0A0K3AR81 1-696)
TOFU-5 (from UniProt Q23096)
TOFU-4 (C. elegans (endogenous in adult animals))
B1

These are yes or no findings as the source states them, for the method shown. Binding seen in cells or lysates may run through a third protein. A yes stands for co-enrichment or nearness to the bait. Other partners may have been found. Tags and fused reporters may be left off the sequences shown.
